Source: publication PMC11239682
Results are given in words; binding and its absence hold for the method and conditions named. Binding calls can cover weak binding; strength is not graded here. Where a sequence is shown, tags or fusion partners need not be part of it. For some assays here: Binding seen in cells or lysates may run through a third protein.

Assays:
[1] = target: T1, NopL, yeast two-hybrid fusion (Gal4 system) (Sinorhizobium fredii HH103) (UniProt P55704); experiment: two-hybrid; Gal4 yeast two-hybrid, strain AH109
T1 sequence: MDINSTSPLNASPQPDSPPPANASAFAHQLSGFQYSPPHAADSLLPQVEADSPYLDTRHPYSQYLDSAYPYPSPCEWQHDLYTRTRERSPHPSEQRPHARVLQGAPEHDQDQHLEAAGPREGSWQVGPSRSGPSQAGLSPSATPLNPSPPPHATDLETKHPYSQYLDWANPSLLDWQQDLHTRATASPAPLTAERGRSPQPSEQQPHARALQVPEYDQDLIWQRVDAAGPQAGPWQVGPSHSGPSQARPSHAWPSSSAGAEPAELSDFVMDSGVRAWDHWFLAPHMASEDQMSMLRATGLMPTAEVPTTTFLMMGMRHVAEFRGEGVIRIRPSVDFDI

[2] = target: T2, NopL-GFP (Sinorhizobium fredii HH103) (UniProt P55704); experiment: co-IP; soybean hairy roots co-expressing 35S:NopL-GFP and REM1a/1b-Myc; IP with anti-GFP antibody (rabbit IgG as control), blot with anti-Myc
T2 sequence: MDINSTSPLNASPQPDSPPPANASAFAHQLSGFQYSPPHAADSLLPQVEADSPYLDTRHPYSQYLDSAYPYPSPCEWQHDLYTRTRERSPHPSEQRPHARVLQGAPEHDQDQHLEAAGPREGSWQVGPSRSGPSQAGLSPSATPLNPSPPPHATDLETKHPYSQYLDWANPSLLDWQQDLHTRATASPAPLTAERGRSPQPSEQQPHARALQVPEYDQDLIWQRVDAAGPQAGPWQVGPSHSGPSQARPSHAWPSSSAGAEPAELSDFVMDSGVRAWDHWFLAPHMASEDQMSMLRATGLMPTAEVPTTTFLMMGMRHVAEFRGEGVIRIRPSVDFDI

[3] = target: T3, GST-NopL (Sinorhizobium fredii HH103) (UniProt P55704); experiment: pull-down; in vitro GST pull-down: His-tagged remorin incubated with GST or GST-NopL (bait) in 20 mM Tris-HCl, 100 mM NaCl, 0.1 mM EDTA, 0.2% Triton X-100, pH 7.4; Glutathione Magarose Beads, 4 °C; anti-GST and anti-His blots; both purified
T3 sequence: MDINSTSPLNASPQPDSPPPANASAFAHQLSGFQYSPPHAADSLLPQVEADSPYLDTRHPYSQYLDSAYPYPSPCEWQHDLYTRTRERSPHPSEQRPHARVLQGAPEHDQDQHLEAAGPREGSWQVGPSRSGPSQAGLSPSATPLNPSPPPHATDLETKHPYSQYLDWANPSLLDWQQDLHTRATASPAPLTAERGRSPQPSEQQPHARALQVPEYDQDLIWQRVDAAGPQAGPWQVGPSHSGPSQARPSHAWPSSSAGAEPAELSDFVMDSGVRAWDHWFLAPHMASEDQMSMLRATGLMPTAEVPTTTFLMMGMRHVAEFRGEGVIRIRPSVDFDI

[4] = target: GmNFR5-FLAG (Glycine max); experiment: co-IP; soybean hairy roots expressing GmNFR5-FLAG and NopL-GFP; blots with anti-FLAG and anti-GFP; which partner was precipitated is not told

“GmREM1a, yeast two-hybrid fusion (Gal4 system) (Glycine max)” was tested, and the binding [1] was “binds”.

With GmREM1a-Myc (Glycine max) the binding [2] was “binds”.

In the case of GmREM1b-Myc (Glycine max), the binding [2] is reported as “binds”.

In the case of His-GmREM1a (Glycine max), the binding [3] is reported as “binds”.

B1: NopL-GFP (protein, UniProt P55704 1-338)
chain: MDINSTSPLNASPQPDSPPPANASAFAHQLSGFQYSPPHAADSLLPQVEADSPYLDTRHPYSQYLDSAYPYPSPCEWQHDLYTRTRERSPHPSEQRPHARVLQGAPEHDQDQHLEAAGPREGSWQVGPSRSGPSQAGLSPSATPLNPSPPPHATDLETKHPYSQYLDWANPSLLDWQQDLHTRATASPAPLTAERGRSPQPSEQQPHARALQVPEYDQDLIWQRVDAAGPQAGPWQVGPSHSGPSQARPSHAWPSSSAGAEPAELSDFVMDSGVRAWDHWFLAPHMASEDQMSMLRATGLMPTAEVPTTTFLMMGMRHVAEFRGEGVIRIRPSVDFDI
With B1 the binding [4] was “binds”.
